The list is a part of this screen's results and no random one: it gathers tests that were run many times, whatever their T/C, doses with no T/C, and many T/C values between a quarter and a half above the control. Other doses and runs of a compound stand elsewhere. T/C is the treated group as % of the vehicle group. Some doses have a count of surviving animals in place of a T/C: the source holds a T/C of zero for them, seemingly a mark for toxic or unscored doses. Some doses without a T/C left all or most animals alive at the check, yet need not have been tolerated: survival well below the control is almost never listed, so the zero probably covers shortened survival too. Counts of survivors are from the toxicity check (mostly the fifth day) where no day follows; animals may have died later. Schedules are NCI's codes, taken here to give the interval after Q, in days (D) or hours (H), and the number of doses after X. Signs of the kind (2×) say how often a value occurs here. Some entries hold several experiments; their values stand side by side, smallest first. Some molecules as drawn cover several salts, stereoisomers or complexes of the source; a dose is that of the sample tested. Where survival is the endpoint, the PubChem record calls one and a half times the control and up active, and a quarter to a half above the control has no call in these data; cut-offs in other NCI protocols can differ. Some T/C values are followed by the survivors on the day toxicity was checked, most often the fifth; without a count, all were alive then.
Test system: BDF1 mice, B16 melanoma ip, median survival T/C
Assay: NCI In Vivo Anticancer Drug Screen. Data for tumor model B16 Melanoma (intraperitoneal) in B6D2F1 (BDF1) mice
Details: T/C endpoint: median survival time, higher T/C = longer survival
Procedure, shortened: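 Vehicle-treated animals serve as the reference (C); treated animals (T) are scored for survival or tumor size after tumor transplantation.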

[1] = dose: 0.12 mg/kg/injection, schedule: Q01DX009 (ip), vehicle: saline
[2] = dose: 1.0 mg/kg/injection, schedule: Q01DX009 (ip), vehicle: saline sonified
[3] = dose: 4.0 mg/kg/injection, schedule: Q01DX002 (ip), vehicle: saline

## C1CN1c1nc(N2CC2)nc(N2CC2)n1
[1]
  T/C: 95, 102 (3×), 105, 106, 112, 119, 130 % of control
  survivor count: 6 of 6
dose: 0.13 mg/kg/injection, schedule: Q01DX009 (ip), vehicle: saline, evaluated on day 45
  T/C: 102, 110, 148 % of control
dose: 0.13 mg/kg/injection, schedule: Q01DX009 (ip), vehicle: saline, evaluated on day 60
  T/C: 101, 103 [4 of 6 alive], 104, 105, 106, 115 (2×), 117 (2×), 122, 129, 133 % of control [4 of 6 alive]
dose: 0.2 mg/kg/injection, schedule: Q01DX009 (ip), vehicle: saline, evaluated on day 45
  T/C: 111 % of control
dose: 0.2 mg/kg/injection, schedule: Q01DX009 (ip), vehicle: saline, evaluated on day 60
  T/C: 116, 123, 133 % of control
dose: 0.25 mg/kg/injection, schedule: Q01DX009 (ip), vehicle: saline, evaluated on day 45
  T/C: 100 and 135 % of control (2×)
dose: 0.25 mg/kg/injection, schedule: Q01DX009 (ip), vehicle: saline, evaluated on day 60
  T/C: 97 (2×), 100, 102, 103 [5 of 6 alive], 107, 110, 111, 112, 115 (2×), 117 (2×), 119, 121, 122, 125, 126 % of control (2×)
dose: 0.25 mg/kg/injection, schedule: Q01DX009 (ip), vehicle: saline
  survivor count: 5 of 6 and 6 of 6
dose: 0.4 mg/kg/injection, schedule: Q01DX009 (ip), vehicle: saline, evaluated on day 45
  T/C: 136 % of control
dose: 0.4 mg/kg/injection, schedule: Q01DX009 (ip), vehicle: saline, evaluated on day 60
  T/C: 114, 134, 150 % of control
dose: 0.5 mg/kg/injection, schedule: Q01DX002 (ip), vehicle: saline
  T/C: 104, 113, 114, 120, 126 % of control
dose: 0.5 mg/kg/injection, schedule: Q01DX009 (ip), vehicle: saline, evaluated on day 45
  T/C: 100 and 102 % of control
dose: 0.5 mg/kg/injection, schedule: Q01DX009 (ip), vehicle: saline, evaluated on day 60
  T/C: 89, 90 (2×), 95, 100, 102, 103, 117, 121 (2×), 122 (2×), 125, 126, 127, 138, 147, 167 % of control
dose: 0.5 mg/kg/injection, schedule: Q01DX009 (ip), vehicle: saline
  survivor count: 10 of 10 and 6 of 6 (2×)
dose: 0.5 mg/kg/injection, schedule: Q08DX002 (ip), vehicle: saline with Tween-80
  T/C: 136 % of control
dose: 0.5 mg/kg/injection, schedule: Q08DX002 (ip), vehicle: saline, evaluated on day 45
  T/C: 107 and 112 % of control
dose: 0.5 mg/kg/injection, schedule: Q08DX002 (ip), vehicle: saline, evaluated on day 60
  T/C: 90 [4 of 6 alive], 100 (2×), 102 (2×), 109, 113, 116, 117, 118, 123, 130 % of control
dose: 0.5 mg/kg/injection, schedule: Q08DX002 (ip), vehicle: saline
  survivor count: 6 of 6 (2×)
dose: 0.8 mg/kg/injection, schedule: Q01DX009 (ip), vehicle: saline
  survivor count: 10 of 10
dose: 1.0 mg/kg/injection, schedule: Q01DX002 (ip), vehicle: saline
  T/C: 110 [5 of 6 alive], 111, 120 [5 of 6 alive], 121, 142 % of control
[2]
  T/C: 130 % of control
  survivor count: 6 of 6
dose: 1.0 mg/kg/injection, schedule: Q01DX009 (ip), vehicle: saline, evaluated on day 45
  T/C: 97 [5 of 6 alive] and 102 % of control
dose: 1.0 mg/kg/injection, schedule: Q01DX009 (ip), vehicle: saline, evaluated on day 60
  T/C: 86 [5 of 6 alive], 100, 103 [4 of 6 alive], 115, 117, 134 % of control
dose: 1.0 mg/kg/injection, schedule: Q01DX009 (ip), vehicle: saline
  survivor count: 5 of 6 (2×), 9 of 10, 10 of 10, 6 of 6
dose: 1.0 mg/kg/injection, schedule: Q08DX002 (ip), vehicle: saline, evaluated on day 45
  T/C: 95, 112, 157 % of control
dose: 1.0 mg/kg/injection, schedule: Q08DX002 (ip), vehicle: saline, evaluated on day 60
  T/C: 100, 100 [4 of 6 alive], 105 [5 of 6 alive], 107, 116, 117, 123, 125, 126, 127, 148 % of control
dose: 1.0 mg/kg/injection, schedule: Q08DX002 (ip), vehicle: saline
  survivor count: 5 of 6 and 6 of 6
dose: 1.6 mg/kg/injection, schedule: Q01DX009 (ip), vehicle: saline
  survivor count: 4 of 10
dose: 2.0 mg/kg/injection, schedule: Q01DX002 (ip), vehicle: saline
  T/C: 95, 97, 102, 132, 146 % of control
dose: 2.0 mg/kg/injection, schedule: Q01DX009 (ip), vehicle: saline
  survivor count: 8 of 10 and 10 of 10
dose: 2.0 mg/kg/injection, schedule: Q01DX009 (ip), vehicle: suspension in saline
  survivor count: 10 of 10
dose: 2.0 mg/kg/injection, schedule: Q08DX002 (ip), vehicle: saline sonified
  T/C: 131 % of control
dose: 2.0 mg/kg/injection, schedule: Q08DX002 (ip), vehicle: saline with Tween-80
  T/C: 133 and 136 % of control
dose: 2.0 mg/kg/injection, schedule: Q08DX002 (ip), vehicle: saline, evaluated on day 45
  T/C: 92 and 122 % of control
dose: 2.0 mg/kg/injection, schedule: Q08DX002 (ip), vehicle: saline, evaluated on day 60
  T/C: 97, 103, 111, 115, 122, 125, 132, 147, 154, 158, 164 % of control
dose: 2.0 mg/kg/injection, schedule: Q08DX002 (ip), vehicle: saline
  survivor count: 1 of 6 and 6 of 6 (2×)
dose: 3.2 mg/kg/injection, schedule: Q01DX009 (ip), vehicle: saline
  survivor count: 6 of 10
[3]
  T/C: 113 % of control
  survivor count: 5 of 6 and 6 of 6
dose: 4.0 mg/kg/injection, schedule: Q08DX002 (ip), vehicle: saline sonified
  survivor count: 5 of 6 and 6 of 6
dose: 4.0 mg/kg/injection, schedule: Q08DX002 (ip), vehicle: saline with Tween-80
  survivor count: 6 of 6
dose: 4.0 mg/kg/injection, schedule: Q08DX002 (ip), vehicle: saline, evaluated on day 45
  T/C: 115 % of control
dose: 4.0 mg/kg/injection, schedule: Q08DX002 (ip), vehicle: saline, evaluated on day 60
  T/C: 97, 102, 120 [5 of 6 alive], 155 % of control
dose: 4.0 mg/kg/injection, schedule: Q08DX002 (ip), vehicle: saline
  survivor count: 0 of 6, 1 of 6, 3 of 6, 4 of 6, 5 of 6, 6 of 6 (2×)

## CC(C)C(Br)C(=O)NC(Cc1ccccc1)C(=O)O (stereo not drawn)
dose: 400.0 mg/kg/injection, schedule: Q01DX009 (ip), vehicle: saline with Tween-80
  survivor count: 9 of 10

## ClC1CC[N-]CC1.ClC1CC[N-]CC1.[Cl][Pt+2]([Cl])([Cl])[Cl]
dose: 25.0 mg/kg/injection, schedule: Q01DX009 (ip), vehicle: saline with Tween-80
  T/C: 132 % of control
dose: 50.0 mg/kg/injection, schedule: Q01DX009 (ip), vehicle: saline with Tween-80
  survivor count: 10 of 10

## O=C(Nc1ccc2c(c1)Cc1cc(Br)ccc1-2)C(F)(F)F
dose: 200.0 mg/kg/injection, schedule: Q04DX003 (ip), vehicle: saline with Tween-80
  survivor count: 10 of 10

## CCCCCCCCCCCCCCCC(=O)N(C(C)CCCN(CC)CC)C(C)CCCN(CC)CC (stereo not drawn)
dose: 6.25 mg/kg/injection, schedule: Q01DX009 (ip), vehicle: other
  survivor count: 10 of 10
dose: 25.0 mg/kg/injection, schedule: Q01DX009 (ip), vehicle: other
  survivor count: 10 of 10

## Cc1c[n+]2ccccc2n1C
dose: 200.0 mg/kg/injection, schedule: Q01DX009 (ip), vehicle: saline with Tween-80
  survivor count: 0 of 10 and 3 of 10

## CCC(CC)CC1CN2CCc3cc(OC)c(OC)cc3C2CC1(O)CC (stereo not drawn)
dose: 50.0 mg/kg/injection, schedule: Q01DX009 (ip), vehicle: Klucel (hydroxypropylcellulose) (HPC)
  survivor count: 2 of 10

## C[n+]1c2cc(N)ccc2cc2ccc(N)cc21
dose: 25.0 mg/kg/injection, schedule: Q01DX009 (ip), vehicle: saline
  survivor count: 0 of 10

## NCCNc1ccc(NCCN)c2c1C(=O)c1ccccc1C2=O
dose: 16.0 mg/kg/injection, schedule: Q01DX009 (ip), vehicle: acid diluted with saline
  survivor count: 10 of 10
dose: 32.0 mg/kg/injection, schedule: Q01DX009 (ip), vehicle: acid diluted with saline
  survivor count: 6 of 10
dose: 64.0 mg/kg/injection, schedule: Q01DX009 (ip), vehicle: acid diluted with saline
  survivor count: 0 of 10

From PubChem BioAssay AID192 (DTP/NCI, 2004)
